Measurements reported in PubChem BioAssay AID504786 (Drosophila RNAi Screening Center, 2011).
The screen tested about 21,000 reagents; below is an unselected part of those that have a named target and a result. 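Primary screen; positive scores mean lost reporter signal, so the sign may be inverted from the usual convention.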 Further read-outs or replicates are left out here.

- Screen: 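Fly genes required for HIF-dependent transcription when hypoxia is mimicked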 (primary screen)
- System: Drosophila S2 cells with a stable HIF luciferase reporter
- Knock-down reagent: long dsRNA against Drosophila genes, about 0.2 µg dsRNA per well of a 384-well plate
- Time to read-out: three days of knock-down, then 20 h of DFO before reading
- Treatment: desferrioxamine (DFO) at 100 µM, an iron chelator that mimics hypoxia, for 20 h
- Detection: 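Firefly luciferase driven by the mouse ldh-a hypoxia-response element, measured after 20 h of 100 µM DFO; z-scores per plate, higher means more signal lost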
- Scale: z-score: higher = stronger loss of HIF reporter signal

The opening 6 entries, ahead of the listing:
gene | DRSC id | z-score, replicate 1 | z-score, replicate 2
CG17028 | DRSC10239 | -0.1 | -0.8
PEK (pancreatic eIF-2alpha kinase) | DRSC12361 | -0.2 | 0
CG7970 | DRSC08605 | -0.3 | -0.3
Strip (Striatin interacting protein) | DRSC08194 | 2.2 | 1.5
Nsun2 (NOP2-Sun domain family, member 2) | DRSC18662 | -0.1 | 0.4
CG32462 | DRSC11851 | -0.3 | -0.6

The list itself, from the first entry:
gene | DRSC id | z-score, replicate 1 | z-score, replicate 2
CG17028 | DRSC10239 | -0.1 | -0.8
PEK (pancreatic eIF-2alpha kinase) | DRSC12361 | -0.2 | 0
CG7970 | DRSC08605 | -0.3 | -0.3
Strip (Striatin interacting protein) | DRSC08194 | 2.2 | 1.5
Nsun2 (NOP2-Sun domain family, member 2) | DRSC18662 | -0.1 | 0.4
CG32462 | DRSC11851 | -0.3 | -0.6
ND5 (retired record) | DRSC21281 | -0.1 | 0.3
CG33109 | DRSC16533 | 0.1 | -0.2
CG44838 | DRSC10330 | 1.4 | 4.3
CG44838 | DRSC10371 | -0.2 | -0.1
CG31300 | DRSC14657 | -0.4 | -0.1
PolA2 (DNA polymerase alpha subunit 2) | DRSC16641 | 0.6 | 0.5
Osi13 (Osiris 13) | DRSC12281 | -0.1 | 0.3
CG5781 | DRSC02893 | -0.3 | -0.3
CG17490 | DRSC03794 | -0.4 | -0.4
CG17490 | DRSC03797 | -0.3 | 0.1
CG7737 | DRSC07033 | -0.3 | 1.2
CG10465 | DRSC04848 | 0 | -0.5
CG5167 | DRSC15728 | -0.3 | -0.5
Gasp | DRSC12349 | -0.4 | -0.5
CG9853 | DRSC12343 | -0.3 | -0.7
CG18508 | DRSC18155 | -0.2 | -0.3
Trissin | DRSC14994 | -0.2 | 0
wech | DRSC06606 | 0 | -0.1
H (Hairless) | DRSC16692 | -0.3 | -0.1
CG30384 | DRSC06032 | -0.3 | -0.2
djl (don juan like) | DRSC12578 | -0.1 | 0.2
Pglym78 (Phosphoglyceromutase 78) | DRSC16787 | -0.4 | -0.5
CG10383 | DRSC02050 | -0.3 | -0.5
CG7378 | DRSC20041 | -0.3 | -0.4
CG13386 | DRSC02260 | -0.3 | -0.5
Hexo1 (Hexosaminidase 1) | DRSC08663 | -0.3 | -0.1
RhoGAP102A (Rho GTPase activating protein at 102A) | DRSC17110 | -0.5 | -0.5
RhoGAP102A (Rho GTPase activating protein at 102A) | DRSC17145 | -0.3 | -0.5
CG33136 | DRSC05744 | 0.3 | -0.1
CG34265 | DRSC08030 | 0 | -0.4
CG11426 | DRSC11658 | -0.2 | -0.1
Cyp4e2 (Cytochrome P450 4e2) | DRSC07371 | -0.3 | -0.6
Dhps (Deoxyhypusine synthase) | DRSC10948 | -0.4 | 0.3
CG12320 | DRSC14498 | -0.2 | 0.1
CG15370 | DRSC18042 | -0.2 | 0.2
CG10969 | DRSC09811 | -0.2 | -0.5
oc (ocelliless) | DRSC18808 | -0.3 | -0.4
muc (midline uncoordinated) | DRSC02832 | -0.4 | -0.5
CG13654 | DRSC14654 | -0.2 | -0.6
CG13814 (retired record) | DRSC10069 | -0.2 | -0.3
TER94 (Transitional endoplasmic reticulum 94) | DRSC07560 | 4.5 | 3.9
dcma (decima) | DRSC00246 | 0 | -0.4
dcma (decima) | DRSC00338 | -0.3 | -0.7
igl (igloo) | DRSC07631 | -0.1 | 0
CG4820 | DRSC15654 | -0.3 | -0.1
mnd (minidiscs) | DRSC11370 | -0.2 | 0.1
CG5280 | DRSC10498 | -0.4 | -0.2
BckdhB (Branched chain keto acid dehydrogenase E1 subunit beta) | DRSC21183 | -0.2 | -0.4
CG8673 | DRSC03105 | -0.3 | -0.3
Tbca (Tubulin binding cofactor A) | DRSC15395 | -0.1 | -0.4
CG7290 | DRSC10800 | -0.1 | 0.1
CG43795 | DRSC04192 | -0.3 | 0.1
CG43795 | DRSC04193 | -0.3 | 0
CG43795 | DRSC04194 | -0.3 | -0.6
CG43795 | DRSC04309 | -0.4 | -0.5
CG43795 | DRSC04310 | -0.3 | -0.4
jp (junctophilin) | DRSC02213 | -0.3 | -0.6
jp (junctophilin) | DRSC02744 | -0.3 | -0.5
CG34457 | DRSC06924 | -0.3 | -0.3
CG4259 | DRSC00645 | -0.2 | -0.3
Zip48C (Zinc/iron regulated transporter-related protein 48C) | DRSC06314 | -0.3 | 0
eIF2beta (eukaryotic translation initiation factor 2 subunit beta) | DRSC11341 | 1.8 | 2
Rab27 | DRSC18567 | -0.3 | -0.7
ATP8 (retired record) | DRSC21277 | -0.2 | -0.1
CG12992 | DRSC19512 | -0.3 | -1
Rbf (Retinoblastoma-family protein) | DRSC18704 | 0.1 | 0.6
Mondo | DRSC02667 | -0.2 | -0.5
Mondo | DRSC02668 | -0.1 | 0.1
CG13056 | DRSC09937 | -0.2 | -0.6
Prim1 (DNA primase subunit 1) | DRSC11137 | 0.8 | 1.2
mfr (misfire) | DRSC10543 | -0.3 | -0.1
CG13369 | DRSC18481 | -0.3 | -0.2
Mrgn1 (Mahogunin ring finger 1) | DRSC20223 | 0.1 | 0.4
Or46a (Odorant receptor 46a) | DRSC07489 | -0.3 | -0.4
Or46a (Odorant receptor 46a) | DRSC07490 | -0.3 | 0
CG12035 | DRSC08238 | -0.2 | -0.5
Lint-O (L(3)mbt interactor in ovarian somatic cells) | DRSC18468 | -0.3 | -0.6
